From paper PMC7125077
These are yes or no findings as the source states them, for the method shown.

Molecular target: Arch domain of human XPD (245-439) (human) (UniProt P18074)
Experiment: crystal structure; human XPD Arch (245-439) / MAT1 (66-141) complex, co-expressed and co-purified; hanging drop, 20 °C, 100 mM Tris-HCl pH 8.5, 25% w/v PEG8000; 2.07 Å, two heterodimers in the asymmetric unit; both purified

binding: no binding
B1: Arch domain of human XPD (245-439) (domain or fragment, UniProt P18074 245-439)
chain: DSMSVNLTRRTLDRCQGNLETLQKTVLRIKETDEQRLRDEYRRLVEGLREASAARETDAHLANPVLPDEVLQEAVPGSIRTAEHFLGFLRRLLEYVKWRLRVQHVVQESPPAFLSGLAQRVCIQRKPLRFCAERLRSLLHTLEITDLADFSPLTLLANFATLVSTYAKGFTIIIEPFDDRTPTIANPILHFSCMD
